Test results from patent publication EP2401611B1, “IMPROVED METHODS FOR IDENTIFICATION” (Cambridge Enterprise Limited, priority 2009, dated 2010).
At least one structure is not confirmed: it was looked up by name or label, or the drawing left a doubt.

Key:
C-reactive Protein (CRP) = experiment: Clinical study: serum CRP by ELISA; type: in vivo, human; conditions: pre-dose versus last day of dosing
TNF-alpha = experiment: Sub-lethal endotoxemia model (LPS challenge, serum TNF-alpha); type: in vivo, mouse
Description: We selected the sub-lethal endotoxemia model in mouse, because this has been well characterised in our laboratory (see for example Fox et al. (2002) J. Med. Chem. 45:360-70; Fox et al. (2005) J. Med. Chem. 48:867-74). The extent of systemic inflammation in response to a single intraperitoneal injection of bacterial lipopolysaccharide (LPS) can be estimated by measuring serum TNF-alpha 2 hours post challenge.
Methods: Mice (CD1 strain; adult males; 6 per group) were treated with BSCI (in an appropriate vehicle) or with vehicle alone by an appropriate route. […] Simultaneously, one set of mice at each BSCI concentration received BIM 23627 at 4mg/animal (120mg/kg) by sub-cutaneous injection (a treatment condition known to suppress classical sstr2-mediated signalling, such as GH release, in rats; Tulipano et al. (2002) 143:1218-24). […]
After a further 2 hours, the animals were sacrificed by CO2 asphyxiation, and blood was drawn by cardiac puncture. Serum was prepared by conventional methods, and the level of TNF-alpha in serum was measured using an ELISA (R&D Systems; Murine Quantikine code# MTA00) performed in accordance with the manufacturer's instructions.

| SMILES | effect on serum CRP level (in words) (C-reactive Protein (CRP)) | effect of co-administration of BIM 23627 on anti-inflammatory potential (in words) (TNF-alpha; BIM 23627 4mg/animal (120mg/kg) sub-cutaneous) | inhibition of LPS-induced TNF-alpha production (in words) (TNF-alpha; BN83250 subcutaneous, valerolactam oral gavage) |
| --- | --- | --- | --- |
| C[C@H]1C[C@@H]2[C@H]([C@@H](O)C[C@@]3(C)[C@H]2CC[C@]3(O)C(=O)CO)[C@@]2(C)C=CC(=O)C=C12 [Medrol^RTM, methylprednisolone] | lowered CRP to a similar extent | – | – |
| C[C@@H]1C[C@H]2[C@@H]3CCC4=CC(=O)C=C[C@]4(C)[C@@]3(F)[C@@H](O)C[C@]2(C)[C@@]1(O)C(=O)CO [dexamethasone] | – | did not affect the anti-inflammatory potential | inhibited TNF-alpha production in response to endotoxin in a dose-dependent manner |
